These are yes or no findings as the source states them, for the method shown. Some results given as binding are weak or reduced against the parent protein; the word gives no strength. Tags and fused reporters may be left off the sequences shown.
Assays:
[1] = molecular target: T1, secreted IL-2 (interleukin-2) (mouse (endogenous in CD4+ T cells of C57BL/6 mice)) (UniProt P04351); assay: ELISA; IL-2 ELISA of supernatants 24 h after Th17 activation in the presence of decreasing doses of sCD25 (20, 10, 5, 1 µg/ml); loss of detectable IL-2 as read-out; only the binder purified
T1 sequence: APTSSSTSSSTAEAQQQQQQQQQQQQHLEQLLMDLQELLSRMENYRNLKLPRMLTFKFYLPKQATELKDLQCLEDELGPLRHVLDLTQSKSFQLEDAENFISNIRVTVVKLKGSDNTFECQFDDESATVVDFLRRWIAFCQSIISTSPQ

[2] = molecular target: T1, secreted IL-2 (interleukin-2) (mouse (endogenous in CD4+ T cells of C57BL/6 mice)); assay: ELISA; mixed sandwich ELISA: capture with an anti-IL-2 antibody, detection with an anti-CD25 antibody; supernatants of CD4+ T cells activated 24 h under Th17 conditions with or without sCD25 (20 µg/ml); only the binder purified

B1: Recombinant murine sCD25His (soluble IL-2 receptor alpha chain) (receptor, UniProt P01590 22-236)
chain: ELCLYDPPEVPNATFKALSYKNGTILNCECKRGFRRLKELVYMRCLGNSWSSNCQCTSNSHDKSRKQVTAQLEHQKEQQTTTDMQKPTQSMHQENLTGHCREPPPWKHEDSKRIYHFVEGQSVHYECIPGYKALQRGPAISICKMKCGKTGWTQPQLTCVDEREHHRFLASEESQGSRNSSPESETSCPITTTDFPQPTETTAMTETFVLTMEYK
Q: For B1, which binding [1] is on record?
A: binds

Q: And the binding [2]?
A: binds
